{"source": "PubChem BioAssay AID2417", "about": "(National Center for Advancing Translational Sciences (NCATS), 2010)", "note": "In all, about 140,000 compounds went through this assay and about 4,300 (3.1%) were called active. Inconclusive means that the source gave no clear call. Such entries were picked first, then a sample of the others.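 How the source made its calls: active means readout at or below -70, meaning at least 70% loss of cells showing the perinucleolar compartment, a nuclear body marking cancer cells; inconclusive means readout between -30 and a set limit; inactive means the rest.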", "data": [{"assay": "High Content Assay for Compounds that inhibit the Assembly of the Perinucleolar Compartment;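 further: plate controls were DMSO wells for no effect and camptothecin positive control wells for full effect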", "conditions": "PC3M PTB-GFP, PNC prevalence imaging, 16 h; at 10 µM; hits give low values", "in_short": "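PC3M cells stably expressing PTB-GFP, 750–1000 cells/well, treated 16 h at 37 °C with compound (23 nl of library stock), in duplicate. After paraformaldehyde fixation and Hoechst stain, imaged at 20x; PNC prevalence scored by image analysis.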", "values": [{"smiles": "COc1cc(CC(=O)NCc2ccc3c(c2)OCO3)cc(OC)c1OC", "activity change (PNC), negative = inhibition": "inconclusive: -72.4%"}, {"smiles": "COc1ccc2c(c1OC)C(=O)OC2Nc1ncc(Br)cc1Br", "note": "(configuration not stated)", "activity change (PNC), negative = inhibition": "inactive: 32.3%"}, {"smiles": "O=C(NC(=S)NCC1CCCO1)c1ccc(Cl)cc1Cl", "note": "(configuration not stated)", "activity change (PNC), negative = inhibition": "inconclusive: -54.8%"}, {"smiles": "Cc1cc(C)c(S(=O)(=O)Nc2c(C)[nH]c(=O)[nH]c2=O)c(C)c1", "activity change (PNC), negative = inhibition": "inconclusive: -43%"}, {"smiles": "CCOC(=O)c1cccc(NC(=O)CNS(=O)(=O)c2cccs2)c1", "activity change (PNC), negative = inhibition": "active: -100%"}, {"smiles": "CCC(CC)C(=O)Nc1cccc(C(=O)Nc2ccc(S(=O)(=O)Nc3ccc(C)cc3)cc2)c1", "activity change (PNC), negative = inhibition": "inactive: -12.8%"}, {"smiles": "COc1cccc(C(c2nnnn2Cc2ccccc2)N2CCN(C(=O)c3ccco3)CC2)c1OC", "note": "(configuration not stated)", "activity change (PNC), negative = inhibition": "inactive: -25.4%"}, {"smiles": "Cc1ccc2nc(SC(C(=O)Nc3ccc(F)cc3)c3ccccc3)[nH]c2c1", "note": "(configuration not stated)", "activity change (PNC), negative = inhibition": "inconclusive: -47.5%"}, {"smiles": "CCc1ccc(-c2cc(C(=O)Nn3cnnc3)c3ccccc3n2)cc1", "activity change (PNC), negative = inhibition": "active: -81.7%"}, {"smiles": "COc1ccc(/C=C2\\SC(=O)N(CCNC(=O)Cn3cnnn3)C2=O)cc1", "activity change (PNC), negative = inhibition": "inconclusive: -40%"}, {"smiles": "COc1ccc(NC(=O)CSc2nncn2C)cc1OC", "activity change (PNC), negative = inhibition": "inactive: 60.4%"}, {"smiles": "CC1(C)CC(=O)C=C(NCCN2CCNCC2)C1", "activity change (PNC), negative = inhibition": "inconclusive: -39.5%"}, {"smiles": "COc1cc(S(=O)(=O)N(C)C)ccc1Br", "activity change (PNC), negative = inhibition": "inconclusive: -39.2%"}, {"smiles": "COC(=O)c1cc2oc3ccccc3c2n1CC(=O)Nc1ccccc1OC", "activity change (PNC), negative = inhibition": "inactive: 10.1%"}, {"smiles": "O=C1ON=C(c2ccccc2)/C1=C/c1ccc(OS(=O)(=O)c2ccccc2)cc1", "activity change (PNC), negative = inhibition": "inconclusive: -31.8%"}, {"smiles": "Cc1nccn1S(=O)(=O)c1cc([N+](=O)[O-])ccc1Cl", "activity change (PNC), negative = inhibition": "inactive: -2.33%"}, {"smiles": "O=S(=O)(NCc1ccccc1)c1ccc2c(c1)OCCO2", "activity change (PNC), negative = inhibition": "inconclusive: -47.3%"}, {"smiles": "Cc1noc(C)c1CSc1nnc2cc(C)c3ccccc3n12", "activity change (PNC), negative = inhibition": "inconclusive: -78.9%"}, {"smiles": "O=C(NCCc1cccs1)C1CC(c2c(Cl)cccc2Cl)=NO1", "note": "(configuration not stated)", "activity change (PNC), negative = inhibition": "inconclusive: -33.7%"}, {"smiles": "CCN(CC)CC(=O)n1c2c(c3ccccc31)CCCC2", "activity change (PNC), negative = inhibition": "active: -100%"}, {"smiles": "COc1ccc(CCNC(=O)c2cc3sc(Cl)cc3n2C)cc1OC", "activity change (PNC), negative = inhibition": "inconclusive: -38.6%"}, {"smiles": "Cc1nc(SCC(=O)NC(C)(C)C)c2c(-c3cccs3)csc2n1", "activity change (PNC), negative = inhibition": "inactive: 84.3%"}, {"smiles": "CC1(C)Cc2nc3sc4c(SCC(=O)NCc5ccccc5)ncnc4c3cc2CO1", "activity change (PNC), negative = inhibition": "active: -112%"}, {"smiles": "CC(C)NS(=O)(=O)c1ccc(OCC(N)=O)c(Cl)c1", "activity change (PNC), negative = inhibition": "inconclusive: -44.1%"}, {"smiles": "O=S1(=O)C=C(Sc2nc3ccccc3s2)c2ccccc21", "activity change (PNC), negative = inhibition": "inconclusive: -31.6%"}, {"smiles": "CCCn1c(C)cc(/C=C(\\C#N)C(=O)OCC(=O)Nc2ccc(OC)c(Cl)c2)c1C", "activity change (PNC), negative = inhibition": "inconclusive: -37.8%"}, {"smiles": "CCN1CCN(CCCNc2ncnc3nc[nH]c23)CC1", "activity change (PNC), negative = inhibition": "inconclusive: -42.3%"}, {"smiles": "Cc1ccc2c(c1)NC(=O)C(CC(=O)NCCCN1CCCC1=O)O2", "note": "(configuration not stated)", "activity change (PNC), negative = inhibition": "inconclusive: -56.1%"}, {"smiles": "CC(=O)Nc1ccc(S(=O)(=O)N2CCN(C(=O)Cc3ccccc3)CC2)cc1", "activity change (PNC), negative = inhibition": "inconclusive: -36.4%"}, {"smiles": "Cc1c(Cl)ccc2c1NC(=O)[C@]21[C@@H]2C(=O)N(Cc3ccccc3)C(=O)[C@@H]2[C@@H]2CCCN21", "activity change (PNC), negative = inhibition": "active: -127%"}, {"smiles": "COc1cc(/C=C2\\SC(=S)N(Nc3ccccc3)C2=O)ccc1O", "activity change (PNC), negative = inhibition": "inactive: -14.5%"}, {"smiles": "COc1ccccc1-c1cc(N)n(S(=O)(=O)c2ccc(F)c(C)c2)n1", "activity change (PNC), negative = inhibition": "inconclusive: -34.1%"}, {"smiles": "O=C(Nc1ccc2c(c1)C(=O)N(CC1CCCO1)C2=O)c1ccccc1Br", "note": "(configuration not stated)", "activity change (PNC), negative = inhibition": "inactive: 23.2%"}, {"smiles": "CC(C)NC(=O)c1cc(-c2ccc(Br)cc2)on1", "activity change (PNC), negative = inhibition": "inconclusive: -31.5%"}, {"smiles": "Cc1c(Cl)cccc1NC(=O)c1cccc(NC(=O)CCC(=O)O)c1", "activity change (PNC), negative = inhibition": "inactive: 10.3%"}, {"smiles": "Cc1nc(Oc2cccc(Cl)c2)c2oc3ccccc3c2n1", "activity change (PNC), negative = inhibition": "inconclusive: -66.3%"}, {"smiles": "COc1ccc(/C=N/NC(=O)c2nn(-c3ccc(C)c(C)c3)c(=O)c3ccccc23)cc1", "activity change (PNC), negative = inhibition": "inconclusive: -69.6%"}, {"smiles": "C=CCOc1cccc(C2C(C(=O)c3ccco3)=C(O)C(=O)N2CCN(CC)CC)c1", "note": "(configuration not stated)", "activity change (PNC), negative = inhibition": "active: -134%"}, {"smiles": "CCN1C(=O)c2cccc3c(NC(=O)C(C)(C)C)ccc1c23", "activity change (PNC), negative = inhibition": "inactive: 1.86%"}, {"smiles": "Cc1c(NC(=O)COC(=O)Cc2ccc(Cl)cc2)c(=O)n(-c2ccccc2)n1C", "activity change (PNC), negative = inhibition": "inconclusive: -72.3%"}, {"smiles": "Cc1ccc2cc(CCNC(=O)c3cccs3)c(=O)[nH]c2c1", "activity change (PNC), negative = inhibition": "inactive: 67.9%"}, {"smiles": "CCN(CC)Cc1c(O)ccc2c(C)c(CC(=O)OC)c(=O)oc12", "activity change (PNC), negative = inhibition": "inactive: 0.992%"}, {"smiles": "CC(C)c1ccc(N2CCN(C(=O)c3ccccc3NC(=O)/C=C\\C(=O)O)CC2)cc1", "activity change (PNC), negative = inhibition": "inconclusive: -55.9%"}, {"smiles": "O=C(NCc1cccnc1)c1ccc(CS(=O)(=O)c2ccc(Br)cc2)o1", "activity change (PNC), negative = inhibition": "inconclusive: -49.2%"}, {"smiles": "CCn1cc(C(=O)N[C@H](C)c2ccccc2)c(=O)c2cc(F)c(N3CCN(C)CC3)cc21", "activity change (PNC), negative = inhibition": "inconclusive: -41.7%"}, {"smiles": "CCC(C)n1[nH]c(=O)cc1N", "note": "(configuration not stated)", "activity change (PNC), negative = inhibition": "inconclusive: -33.2%"}, {"smiles": "O=C(O)c1oc2ccccc2c1CN1CCN(c2ccccc2)CC1", "activity change (PNC), negative = inhibition": "inconclusive: -33.8%"}, {"smiles": "N#CC1=C(N)Oc2n[nH]c(-c3cccs3)c2C1c1cccs1", "note": "(configuration not stated)", "activity change (PNC), negative = inhibition": "inactive: 20.2%"}, {"smiles": "O=C(NN1CCOCC1)c1ccc(Cl)cc1", "activity change (PNC), negative = inhibition": "inconclusive: -35.5%"}, {"smiles": "N#C/C(=C\\c1cc([N+](=O)[O-])c(N2CCOCC2)cc1N1CCOCC1)c1nc2ccccc2[nH]1", "activity change (PNC), negative = inhibition": "inactive: 5.76%"}, {"smiles": "CCN(CC)S(=O)(=O)c1ccc(Nc2nc3ccccc3n3nnnc23)cc1", "activity change (PNC), negative = inhibition": "inactive: -18.8%"}, {"smiles": "O=C(Cn1cnc2c(nnn2Cc2ccccc2)c1=O)NCC1CCCO1", "note": "(configuration not stated)", "activity change (PNC), negative = inhibition": "inconclusive: -69%"}, {"smiles": "Cc1cccc(NC(=S)NCC(c2cccnc2)N(C)C)c1C", "note": "(configuration not stated)", "activity change (PNC), negative = inhibition": "inconclusive: -34.3%"}, {"smiles": "Cc1ccc(OCCNS(=O)(=O)c2ccc(N3CCCC3=O)cc2)cc1C", "activity change (PNC), negative = inhibition": "inconclusive: -40.9%"}, {"smiles": "COC(=O)c1ccccc1OCCCCN1CC(C)OC(C)C1", "note": "(configuration not stated)", "activity change (PNC), negative = inhibition": "inconclusive: -52.5%"}, {"smiles": "COc1ccccc1Cn1c(=O)c2ccccc2n2c(SCc3csc(C)n3)nnc12", "activity change (PNC), negative = inhibition": "inactive: -1.38%"}, {"smiles": "COc1ccc(NC(=O)c2oc3ccccc3c2NC(=O)C(C)(C)C)cc1", "activity change (PNC), negative = inhibition": "inconclusive: -35.1%"}]}]}
